Results on four substances are retold here after patent publication US11311625B2 (priority 2015, dated 2022).

HELM strings list residues between dots; [ac] is acetyl, [am] amide, other brackets name non-standard units.

This series can be described thus: general procedure: Fmoc solid-phase peptide synthesis; Rink amide MBHA resin (substitution level 0.56 mmol/g); PyBroP/DIEA in NMP. The note with it: whole synthesis, scale of the general procedure 1 g resin (0.56 mmol/g).

On to “PEPTIDE1{[ABT751-CO].[GABA].[dF].C.F.W.[dW].K.T.F.[GlyS2].[am]}$PEPTIDE1,PEPTIDE1,4:R3-11:R3$$$V2.0”, for which the “final LC-MS purity” value was 93% and the isolated yield is on record as 41%.
Taken in the same sequence, the figures for “PEPTIDE1{[AMGlut].[GABA].[dF].C.F.W.[dW].K.T.F.[GlyS2].[am]}$PEPTIDE1,PEPTIDE1,4:R3-11:R3$$$V2.0” were 96% and 48%.
Taken in the same sequence, the figures for “PEPTIDE1{[COMB-CO].[GABA].[dF].C.F.W.[dW].K.T.F.[GlyS2].[am]}$PEPTIDE1,PEPTIDE1,4:R3-11:R3$$$V2.0” were 95% and 38%.
The matching figures for “PEPTIDE1{[CPT-CO].[GABA].[dF].C.F.W.[dW].K.T.F.[GlyS2].[am]}$PEPTIDE1,PEPTIDE1,4:R3-11:R3$$$V2.0”: 95% and 42%.
